{"source": "patent US20240383873A1", "about": "“PESTICIDALLY ACTIVE CYCLIC AMINE COMPOUNDS” (SYNGENTA CROP PROTECTION AG, priority 2021, published 2024)", "tested_on": "Tetranychus Urticae (Two-Spotted Spider Mite)", "assay": "Tetranychus urticae (two-spotted spider mite): feeding/contact activity", "type": "in vivo", "details": "application rate of 200 ppm; bean leaf discs sprayed; mixed population (mobile stages); 8 days after infestation", "experimental": "Example B1: Tetranychus Urticae (Two-Spotted Spider Mite): Feeding/Contact Activity\nBean leaf discs on agar in 24-well microtiter plates were sprayed with aqueous test solutions prepared from 10'000 ppm DMSO stock solutions. After drying the leaf discs were infested with a mite population of mixed ages. The samples were assessed for mortality on mixed population (mobile stages) 8 days after infestation.", "note": "Some entries share one result that the patent states for a list of compounds."}
{"molecule": "CCN(C)S(=O)(=O)C1CCN(C(=O)c2cc(C#N)c(OCc3cc(Br)ccc3Cl)nc2C(F)F)CC1", "note": "[Compound P1.160]", "values": [{"measurement": "mortality", "result": "at least 80%"}]}
{"molecule": "CN(C)S(=O)(=O)C1CCN(C(=O)c2cc(C#N)c(OCc3cc(C(F)(F)F)ccc3Cl)nc2C(F)(F)F)CC1", "note": "[Compound P1.25]", "values": [{"measurement": "mortality", "result": "at least 80%"}]}
{"molecule": "COCCC(=O)N1CCN(C(=O)c2cc(C#N)c(OCc3cc(C(F)(F)F)ccc3F)nc2C(F)(F)F)CC1", "note": "[Compound P2.7]", "values": [{"measurement": "mortality", "result": "at least 80%"}]}
{"molecule": "CN(C)S(=O)(=O)C1CCN(C(=O)c2cc(C#N)c(OCc3ccc4c(c3)OC(F)(F)O4)nc2C2CC2)CC1", "note": "[Compound P1.132]", "values": [{"measurement": "mortality", "result": "at least 80%"}]}
{"molecule": "CCN(C)C(=O)CN1CCN(C(=O)c2cc(C#N)c(OCc3ccc(Cl)cc3F)nc2C(F)F)CC1", "note": "[Compound P2.54]", "values": [{"measurement": "mortality", "result": "at least 80%"}]}
{"molecule": "CCN(C)S(=O)(=O)C1CCN(C(=O)c2cc(C#N)c(OCc3ccc4c(c3)OC(F)(F)O4)nc2C(F)F)CC1", "note": "[Compound P1.75]", "values": [{"measurement": "mortality", "result": "at least 80%"}]}
{"molecule": "CN(C)S(=O)(=O)C1CCN(C(=O)c2cc(C#N)c(OCc3ccc(Cl)c(Cl)c3)nc2C(F)F)CC1", "note": "[Compound P1.68]", "values": [{"measurement": "mortality", "result": "at least 80%"}]}
{"molecule": "CCN(C)S(=O)(=O)C1CCN(C(=O)c2cc(C#N)c(OCc3ccc4c(c3)OC(F)(F)O4)nc2C2CC2)CC1", "note": "[Compound P1.134]", "values": [{"measurement": "mortality", "result": "at least 80%"}]}
{"molecule": "CNC(=O)NCC1CCN(C(=O)c2cc(C#N)c(OCc3ccc4c(c3)OC(F)(F)O4)nc2C(F)F)CC1", "note": "[Compound P1.83]", "values": [{"measurement": "mortality", "result": "at least 80%"}]}
{"molecule": "CCN(C)C(=O)CN1CCN(C(=O)c2cc(C#N)c(OCc3cc(C(F)(F)F)ccc3F)nc2C(F)(F)F)CC1", "note": "[Compound P2.22]", "values": [{"measurement": "mortality", "result": "at least 80%"}]}
{"molecule": "Cc1nc(OCc2ccc(OC(F)(F)F)cc2)c(C#N)cc1C(=O)N1CCC(N(C)S(C)(=O)=O)CC1", "note": "[Compound P1.21]", "values": [{"measurement": "mortality", "result": "at least 80%"}]}
{"molecule": "CN(C)S(=O)(=O)C1CCN(C(=O)c2cc(C#N)c(OCc3ccc(Cl)c(Cl)c3)nc2C(F)(F)F)CC1", "note": "[Compound P1.28]", "values": [{"measurement": "mortality", "result": "at least 80%"}]}
{"molecule": "N#Cc1cc(C(=O)N2CCN(CC(=O)NC3CC3)CC2)c(C(F)(F)F)nc1OCc1cc(C(F)(F)F)ccc1F", "note": "[Compound P2.24]", "values": [{"measurement": "mortality", "result": "at least 80%"}]}
{"molecule": "CN(C)S(=O)(=O)C1CCN(C(=O)c2cc(C#N)c(OCc3cc(F)c(F)cc3F)nc2C(F)F)CC1", "note": "[Compound P1.65]", "values": [{"measurement": "mortality", "result": "at least 80%"}]}
{"molecule": "CCN(C)C(=O)CN1CCN(C(=O)c2cc(C#N)c(OCc3ccc4c(c3)OC(F)(F)O4)nc2COC)CC1", "note": "[Compound P2.38]", "values": [{"measurement": "mortality", "result": "at least 80%"}]}
{"molecule": "CNS(=O)(=O)C1CCN(C(=O)c2cc(C#N)c(OCc3cc(F)c(F)cc3F)nc2COC)CC1", "note": "[Compound P1.120]", "values": [{"measurement": "mortality", "result": "at least 80%"}]}
{"molecule": "CCNS(=O)(=O)C1CCN(C(=O)c2cc(C#N)c(OCc3cc(Br)ccc3Cl)nc2COC)CC1", "note": "[Compound P1.164]", "values": [{"measurement": "mortality", "result": "at least 80%"}]}
{"molecule": "CCNS(=O)(=O)C1CCN(C(=O)c2cc(C#N)c(OCc3ccc4c(c3)OC(F)(F)O4)nc2COC)CC1", "note": "[Compound P1.71]", "values": [{"measurement": "mortality", "result": "at least 80%"}]}
{"molecule": "CNS(=O)(=O)C1CCN(C(=O)c2cc(C#N)c(OCc3cc(C(F)(F)F)ccc3F)nc2C)CC1", "note": "[Compound P1.7]", "values": [{"measurement": "mortality", "result": "at least 80%"}]}
{"molecule": "CNC(=O)CC1CCN(C(=O)c2cc(C#N)c(OCc3cc(C(F)(F)F)ccc3F)nc2C(F)(F)F)CC1", "note": "[Compound P1.14]", "values": [{"measurement": "mortality", "result": "at least 80%"}]}
{"molecule": "N#CCC(=O)N1CCN(C(=O)c2cc(C#N)c(OCc3cc(C(F)(F)F)ccc3F)nc2C(F)(F)F)CC1", "note": "[Compound P2.9]", "values": [{"measurement": "mortality", "result": "at least 80%"}]}
{"molecule": "CN(C)S(=O)(=O)C1CCN(C(=O)c2cc(C#N)c(OCc3ccc(OC(F)(F)F)cc3)nc2C(F)F)CC1", "note": "[Compound P1.76]", "values": [{"measurement": "mortality", "result": "at least 80%"}]}
{"molecule": "CCN(C)S(=O)(=O)C1CCN(C(=O)c2cc(C#N)c(OCc3ccc4nonc4c3)nc2COC)CC1", "note": "[Compound P1.139]", "values": [{"measurement": "mortality", "result": "at least 80%"}]}
{"molecule": "CNS(=O)(=O)N(C)C1CCN(C(=O)c2cc(C#N)c(OCc3cc(C(F)(F)F)ccc3F)nc2C(F)(F)F)CC1", "note": "[Compound P1.30]", "values": [{"measurement": "mortality", "result": "at least 80%"}]}
{"molecule": "CCNS(=O)(=O)C1CCN(C(=O)c2cc(C#N)c(OCc3cc(F)c(F)cc3F)nc2COC)CC1", "note": "[Compound P1.156]", "values": [{"measurement": "mortality", "result": "at least 80%"}]}
{"molecule": "CCNC(=O)N1CCN(C(=O)c2cc(C#N)c(OCc3cc(C(F)(F)F)ccc3F)nc2C(F)F)CC1", "note": "[Compound P2.12]", "values": [{"measurement": "mortality", "result": "at least 80%"}]}
{"molecule": "CN(C)C(=O)CN1CCN(C(=O)c2cc(C#N)c(OCc3cc(F)c(F)cc3F)nc2C(F)F)CC1", "note": "[Compound P2.42]", "values": [{"measurement": "mortality", "result": "at least 80%"}]}
{"molecule": "CS(=O)(=O)OC1CCN(C(=O)c2cc(C#N)c(OCc3cc(C(F)(F)F)ccc3F)nc2C(F)(F)F)CC1", "note": "[Compound P1.3]", "values": [{"measurement": "mortality", "result": "at least 80%"}]}
{"molecule": "COCc1nc(OCc2ccc3nonc3c2)c(C#N)cc1C(=O)N1CCC(S(=O)(=O)N(C)C)CC1", "note": "[Compound P1.127]", "values": [{"measurement": "mortality", "result": "at least 80%"}]}
{"molecule": "CCN(C)S(=O)(=O)C1CCN(C(=O)c2cc(C#N)c(OCc3cc(F)c(F)cc3F)nc2COC)CC1", "note": "[Compound P1.138]", "values": [{"measurement": "mortality", "result": "at least 80%"}]}
{"molecule": "CN(C)S(=O)(=O)C1CCN(C(=O)c2cc(C#N)c(OCc3cc(Cl)ccc3F)nc2C(F)F)CC1", "note": "[Compound P1.129]", "values": [{"measurement": "mortality", "result": "at least 80%"}]}
{"molecule": "CN(C)S(=O)(=O)C1CCN(C(=O)c2cc(C#N)c(OCc3cc(Cl)ccc3Cl)nc2C(F)(F)F)CC1", "note": "[Compound P1.27]", "values": [{"measurement": "mortality", "result": "at least 80%"}]}
{"molecule": "CCN(C)S(=O)(=O)C1CCN(C(=O)c2cc(C#N)c(OCc3ccc4c(c3)OC(F)(F)O4)nc2COC)CC1", "note": "[Compound P1.74]", "values": [{"measurement": "mortality", "result": "at least 80%"}]}
{"molecule": "CCN(C)C(=O)CN1CCN(C(=O)c2cc(C#N)c(OCc3ccc4c(c3)OC(F)(F)O4)nc2C(F)F)CC1", "note": "[Compound P2.32]", "values": [{"measurement": "mortality", "result": "at least 80%"}]}
{"molecule": "CN(C)C(=O)C1(N2CCN(C(=O)c3cc(C#N)c(OCc4ccc5c(c4)OC(F)(F)O5)nc3C(F)F)CC2)CC1", "note": "[Compound P2.35]", "values": [{"measurement": "mortality", "result": "at least 80%"}]}
{"molecule": "CNS(=O)(=O)C1CCN(C(=O)c2cc(C#N)c(OCc3cc(Cl)ccc3F)nc2COC)CC1", "note": "[Compound P1.110]", "values": [{"measurement": "mortality", "result": "at least 80%"}]}
{"molecule": "CN(C)S(=O)(=O)NC1CCN(C(=O)c2cc(C#N)c(OCc3cc(C(F)(F)F)ccc3F)nc2C(F)(F)F)CC1", "note": "[Compound P1.36]", "values": [{"measurement": "mortality", "result": "at least 80%"}]}
{"molecule": "CN(C)C(=O)CN1CCN(C(=O)c2cc(C#N)c(OCc3ccc(Br)c(F)c3)nc2C(F)F)CC1", "note": "[Compound P2.43]", "values": [{"measurement": "mortality", "result": "at least 80%"}]}
{"molecule": "CN(C)C(=O)CC1CCN(C(=O)c2cc(C#N)c(OCc3cc(C(F)(F)F)ccc3F)nc2C(F)F)CC1", "note": "[Compound P1.38]", "values": [{"measurement": "mortality", "result": "at least 80%"}]}
{"molecule": "COCCN1CCN(C(=O)c2cc(C#N)c(OCc3cc(C(F)(F)F)ccc3F)nc2C(F)(F)F)CC1", "note": "[Compound P2.11]", "values": [{"measurement": "mortality", "result": "at least 80%"}]}
{"molecule": "CN(C)S(=O)(=O)C1CCN(C(=O)c2cc(C#N)c(OCc3ccc(Br)c(F)c3)nc2C(F)F)CC1", "note": "[Compound P1.113]", "values": [{"measurement": "mortality", "result": "at least 80%"}]}
{"molecule": "COCc1nc(OCc2ccc3c(c2)OC(F)(F)O3)c(C#N)cc1C(=O)N1CCC(CNC(C)=O)CC1", "note": "[Compound P1.72]", "values": [{"measurement": "mortality", "result": "at least 80%"}]}
{"molecule": "CN(C)S(=O)(=O)C1CCN(C(=O)c2cc(C#N)c(OCc3ccc(F)c(F)c3)nc2C(F)(F)F)CC1", "note": "[Compound P1.22]", "values": [{"measurement": "mortality", "result": "at least 80%"}]}
{"molecule": "CC(C)(C#N)C(=O)N1CCN(C(=O)c2cc(C#N)c(OCc3cc(C(F)(F)F)ccc3F)nc2C(F)(F)F)CC1", "note": "[Compound P2.17]", "values": [{"measurement": "mortality", "result": "at least 80%"}]}
{"molecule": "CCNS(=O)(=O)C1CCN(C(=O)c2cc(C#N)c(OCc3ccc(Cl)cc3F)nc2COC)CC1", "note": "[Compound P1.155]", "values": [{"measurement": "mortality", "result": "at least 80%"}]}
